From PMC10347878
No constants are given. Whether binding was seen depends on the method and setting. In cells and extracts the contact can be indirect. Some binding calls cover weakened binding; strength is not graded here.

Protein sequences, listed by entry. Tags and fused reporters are not part of them.
UniProt Q16665: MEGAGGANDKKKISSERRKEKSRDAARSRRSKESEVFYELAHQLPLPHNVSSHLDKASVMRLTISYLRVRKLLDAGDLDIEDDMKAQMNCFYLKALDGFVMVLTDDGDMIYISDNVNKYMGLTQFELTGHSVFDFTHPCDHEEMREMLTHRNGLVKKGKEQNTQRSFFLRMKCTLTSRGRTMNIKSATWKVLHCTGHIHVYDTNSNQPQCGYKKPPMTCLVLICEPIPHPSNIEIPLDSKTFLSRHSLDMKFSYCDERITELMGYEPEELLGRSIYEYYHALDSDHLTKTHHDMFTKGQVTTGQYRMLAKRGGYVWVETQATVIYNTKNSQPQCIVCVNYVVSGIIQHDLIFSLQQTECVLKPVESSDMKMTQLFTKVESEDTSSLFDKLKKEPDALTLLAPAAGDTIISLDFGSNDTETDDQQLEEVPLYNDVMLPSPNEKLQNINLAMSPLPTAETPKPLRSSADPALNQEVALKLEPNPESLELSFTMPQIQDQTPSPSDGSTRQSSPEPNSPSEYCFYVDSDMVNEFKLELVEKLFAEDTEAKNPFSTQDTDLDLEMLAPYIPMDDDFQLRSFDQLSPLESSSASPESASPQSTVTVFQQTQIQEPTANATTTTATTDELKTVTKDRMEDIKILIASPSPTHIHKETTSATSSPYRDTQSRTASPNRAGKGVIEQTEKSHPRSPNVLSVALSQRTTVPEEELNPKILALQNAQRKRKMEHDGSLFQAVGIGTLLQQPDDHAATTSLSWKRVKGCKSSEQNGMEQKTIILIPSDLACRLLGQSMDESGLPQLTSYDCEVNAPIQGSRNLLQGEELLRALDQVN

Biological target: Hypoxia Inducible Factor 1 Subunit Alpha (UniProt Q16665)
Assay: co-IP; reciprocal co-immunoprecipitation; cells, antibodies and conditions not stated

B1: ETS Transcription Factor ELK3 (protein, UniProt P41970 1-407)
chain: MESAITLWQFLLQLLLDQKHEHLICWTSNDGEFKLLKAEEVAKLWGLRKNKTNMNYDKLSRALRYYYDKNIIKKVIGQKFVYKFVSFPEILKMDPHAVEISRESLLLQDSDCKASPEGREAHKHGLAALRSTSRNEYIHSGLYSSFTINSLQNPPDAFKAIKTEKLEEPPEDSPPVEEVRTVIRFVTNKTDKHVTRPVVSLPSTSEAAAASAFLASSVSAKISSLMLPNAASISSASPFSSRSPSLSPNSPLPSEHRSLFLEAACHDSDSLEPLNLSSGSKTKSPSLPPKAKKPKGLEISAPPLVLSGTDIGSIALNSPALPSGSLTPAFFTAQTPNGLLLTPSPLLSSIHFWSSLSPVAPLSPARLQGPSTLFQFPTLLNGHMPVPIPSLDRAASPVLLSSNSQKS
- binding: binds
